Patent US20050215770A1
Results are given in words; binding and its absence hold for the method and conditions named. Some entries that bind do so weakly or less than the wild type. Tags and fused reporters may be left off the sequences shown.

T1: Recombinant soluble human Flag-tagged NogoR (amino acids 1 to 309 of SEQ ID NO:2) (human) (UniProt Q9BZR6)
T1 sequence (chain, biotinylated with Sulfo-NHS-LC-Biotin): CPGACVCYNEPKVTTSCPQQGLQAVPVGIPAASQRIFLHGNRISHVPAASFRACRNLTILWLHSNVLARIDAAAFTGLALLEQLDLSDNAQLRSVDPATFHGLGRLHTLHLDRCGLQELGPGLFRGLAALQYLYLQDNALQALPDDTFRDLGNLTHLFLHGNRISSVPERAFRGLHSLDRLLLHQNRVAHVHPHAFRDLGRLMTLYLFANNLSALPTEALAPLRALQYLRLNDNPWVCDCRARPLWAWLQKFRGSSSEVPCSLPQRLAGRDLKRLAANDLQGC

B1: NGE2077 (scFv)
scFv: EVQLVQSGAEVKKPGSSVKVSCKASGDTFSSFGFSWVRQAPGQGLEWMGGIIPMYGTAKYAQKFQDRVTITADESMSTVYMELNSLRSDDTAVYYCARGPLVRYYFYYMDVWGRGTMVTVSSGGGGSGGGGSGGGGSQSVLTQPPSASGTPGQRVTISCSGSSSNIGSNTVNWYQRLPGAAPQLLIYNNDQRPSGIPDRFSGSRSGTSGSLVISGLQSEDEADYYCASWDDSLNGRVFGGGTKLTVLG
B2: NGE2105 (scFv)
scFv: QVQLVQSGGGVVQPGESLRLSCAASGFTLSSYAMAWVRQAPGKGLEWIGNIYFGGSAYYNPSLKSRVTISLATSENQFSLKLTSVTAADTAMYFCAREINDYGDFGGYDLWGQGTMVTVSSGGGGSGGGGSGGGGSQSVLTQPASVSGSPGQSITISCTGTSSDVGGYNYVSWYQQHPGKTPKLMIYEGSKRPSGISNRFSGSKSGNTASLTISGLQAEDEADYYCSSYTTRSTRVFGGGTKLTVLG
B3: NGE2122 (scFv)
scFv: EVQLVQSGAEVKKPGSSVKVSCKASGGTLRSFAISWVRQAPGQGLEWVGRIIPVLNIADYAQKFRGRVTLTADDFTDTAYMELSRLTSDDSAIYYCAKDRETVTTNWAYYFDYWGQGTMVTVSSGGGGSGGGGSGGGGSQSALTQPASVSGSRGQSITISCTGTTGDVGGYDYVSWYQQHPGKAPKLLIYGNSNRPSGVPDRFSASKSGNTASLTISGLQAEDEADYFCSTYAPPGIIMFGGGTKLTVLG
B4: NGE2925 (scFv)
scFv: QVQLQESGPGLVKPSETLSLTCVVSGGSISSSNWWSWVRQPPGKGLEWIGEIYHSGSPNYNPSLKSRVTISVDKSKNQFSLKLSSVTSADTAVYYCARQWEGIRSWGQGTLVTVSRGGGGSGGGGSGGGGSSELTQDPAVSVALGQTVRITCQGDSLRSYYASWYQQKPGQAPVLVIYGKNNRPSGIPDRFSGSSSGNTASLTITGARAEDEADYYCNSRDSSGNHVVFGGGTKLTVLG
B5: NGE3064 (scFv)
scFv: EVQLVQSGGGVVQPGRSLRLSCAASGFTFSDYGIHWVRQAPGKGLEWVAAILYDGSNQFYTDSVKGRFTLSRDISKNTLYLQMNSLRVEDTAVYYCVRDLVAAAGTGLPIGSVWGRGTMVTVSSGGGGSGGGGSGGGGSQSVLTQPASVSGSPGQSITISCTGTSSDVGGYNYVSWYQQHPGKAPKFMIYDVSKRPSGVSNRFSGSKSGNTASLTISGVQAEDEADYYCSSYTSASTVIFGGGTKLTVLG
B6: NGF0540 (scFv)
scFv: QVQLQESGPGVVKPSETLSLSCTVSGDSISTSDYYWGWVRQPPGKGLEWIGSLFYRGTTYYSPSLKSRVSISVDTSKNQFSLNLSSVTASDTAVYFCARHARFGRHDYLGERDVFDIWGRGTMVTVSSGGGGSGGGGSGGGGSALSYELTQPPSASGTPGQRVTISCSGSSPNIGSNTVNWYQQLPGTAPKLLIHTNNQRPSGVPDRFSGSKSGTSASLAISGLQSEDEADYYCASWDDSLNGVVFGGGTKLTVLG
B7: NGF0719 (scFv)
scFv: EVQLVQSGTEVKKPGASVKVSCKASGYTFSSYYMHWVRQAPGQGLEWMGVINPGGDVTGYAPKFQDRVTMTRDTSTSTLYMELSSLRSEDTALYYCARDSDTGWFSIDYWGRGTLVTVSSGGGGSGGGGSGGGGSAQAVLTQPSSVSGTPGQTVIISCSGSNSNIRGNTVNWYQQLPGSAPRLLIYSNNIRPSGVPDRFSGSKSDTSASLAISGLQSEDEADFYCATWDDSLRGLVIGGGTKLTVLG
B8: NGF0936 (scFv)
scFv: QVQLQESGAEVKKPGSSVKVSCKASGGTFSSYAISWVRQAPGQGLEWMGGIIPIFGTANYAQKFQGRVTITADESTSTAYMELSSLRSEDTAVYYCATLNSGYDYKWGYYYYGMDVWGRGTLVTVSSGGGGSGGGGSGGGGSAQPVLTQPPSASGAPGQTVTISCSGSSSNVGSNTVDWYQQLPGSAPKLLIYTNDQRPSGVPDRFSGSKSGTSASLAISGLQSEDEADYYCSTRDDRLNGRVFGGGTKLPVLG
B9: NGF0947 (scFv)
scFv: QVQLQESGGGLVQPGGSLRLSCAASGLNLRQEEMNWVRQTPEKGLEWISYISSGGGSRDYADSVKGRFTISRDNAKNLMYLQMNNLRAEDTAVYYCARQEAGRYEALDIWGRGTLVTVSSGGGGSGGGGSGGGGSAQSVLTQPPSVSGAPGQTVTISCTGTTSNIGAGYDVHWYQQVPGTAPKVLIYGSRNRPSGVPYRFSGFKSGTSASLAITGLQAEDEADYYCQAYDSSLSGYVFGMGTQLTVLS
B10: NGF1E07 (scFv)
scFv: EVQLVESGAEVKKPGASVKVSCKVSGDTLAELTMHWVRQAPGNGLEWMGGYDPESGETKHAQKFQGRVTMTEDTSTDTAYMELSSLRSEDTAVYYCAADRRHWGSLDVWGKGTLVTVSSGGGGSGGGGSGGGGSALSYVLTQPPSVSEAPGQRVTISCSGGNVGSSSVNWYQQLPGKAPTLLIYYDTVLTSGVSARFSGSRSATSASLAISGLQSEDEADYYCAIWDDSLNAWVFGGGTQLTVLS
B11: NGF3C10 (scFv)
scFv: QLQLQESGPGLVKPSGTLSLTCAVTGDSITSNNWWSWVRQAPGKGLEWIGDVYHTGTTNYNPSLKSRVTISVDESKNQFSLKVTSVTTADTAVYYCAREEYDVWSGPMDVWGQGTLVTVSSGGGGSGGGGSGGGGSAQAVLTQPSSVSGAPGQRVSISCTGSSSNIGAGYDVHWYQQLPGTAPKLLIYGNINRPSGVPDRFSGSKSGTSASLAITGLQAEDEADYYCQSYDSSLRAAVFGGGTKVTVLG

Experiments:
[1] = target: T1, Recombinant soluble human Flag-tagged NogoR (amino acids 1 to 309 of SEQ ID NO:2) (human); assay: ECL phage screen (Example 1)
[2] = target: T1, Recombinant soluble human Flag-tagged NogoR (amino acids 1 to 309 of SEQ ID NO:2) (human); assay: ECL phage screen on biotin-rHuNOGOSR-Flag (positive: 5-fold above background)
[3] = target: T1, Recombinant soluble human Flag-tagged NogoR (amino acids 1 to 309 of SEQ ID NO:2) (human); assay: ECL competition vs Ori-TAG Rat MAG-Fc, phage and/or soluble scFv

Binder	binding [1]	binding [2]	binding [3]
B1	binds	binds	binds
B2	binds	binds	binds
B3	binds	binds	binds
B4	binds	binds	binds
B5	binds	binds	binds
B6	binds	binds	binds
B7	binds	binds	binds
B8	binds	binds	binds
B9	binds	binds	binds
B10	binds	–	binds
B11	binds	–	binds
